These are yes or no findings as the source states them, for the method shown.

By UniProt entry, the sequences of proteins in these tests, tags left out. Residues count along the entry.
UniProt Q15155, residues 32-1160: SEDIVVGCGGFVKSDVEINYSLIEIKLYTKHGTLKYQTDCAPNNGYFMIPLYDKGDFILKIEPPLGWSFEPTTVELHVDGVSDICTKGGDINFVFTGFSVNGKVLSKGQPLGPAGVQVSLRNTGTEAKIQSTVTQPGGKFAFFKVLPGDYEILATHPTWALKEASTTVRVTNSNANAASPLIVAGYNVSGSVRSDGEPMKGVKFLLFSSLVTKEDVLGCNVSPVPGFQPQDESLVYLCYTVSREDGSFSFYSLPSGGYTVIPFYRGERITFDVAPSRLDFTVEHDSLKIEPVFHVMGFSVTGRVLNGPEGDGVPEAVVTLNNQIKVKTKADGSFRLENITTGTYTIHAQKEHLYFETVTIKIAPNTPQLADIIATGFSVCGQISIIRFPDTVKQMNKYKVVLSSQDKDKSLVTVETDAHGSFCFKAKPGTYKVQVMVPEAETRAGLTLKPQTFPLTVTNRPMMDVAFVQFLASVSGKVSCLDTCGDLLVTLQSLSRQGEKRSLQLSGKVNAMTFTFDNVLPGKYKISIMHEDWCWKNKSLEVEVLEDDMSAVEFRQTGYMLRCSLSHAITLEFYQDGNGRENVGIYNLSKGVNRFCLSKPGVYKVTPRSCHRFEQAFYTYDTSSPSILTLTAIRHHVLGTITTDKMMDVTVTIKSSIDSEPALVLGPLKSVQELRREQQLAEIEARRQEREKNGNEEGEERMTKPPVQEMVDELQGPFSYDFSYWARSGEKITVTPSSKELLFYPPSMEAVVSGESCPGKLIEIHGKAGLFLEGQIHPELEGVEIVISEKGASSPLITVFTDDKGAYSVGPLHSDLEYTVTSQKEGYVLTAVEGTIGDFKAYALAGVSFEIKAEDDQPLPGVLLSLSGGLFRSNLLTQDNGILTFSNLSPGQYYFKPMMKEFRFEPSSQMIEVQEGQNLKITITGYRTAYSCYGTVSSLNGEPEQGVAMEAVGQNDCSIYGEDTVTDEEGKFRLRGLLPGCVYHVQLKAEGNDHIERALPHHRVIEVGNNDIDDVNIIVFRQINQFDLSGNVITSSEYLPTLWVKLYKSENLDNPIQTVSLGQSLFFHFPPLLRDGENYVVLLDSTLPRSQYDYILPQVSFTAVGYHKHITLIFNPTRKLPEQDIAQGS

The assay has as its target NOMO^LD-FLAG (NOMO1 luminal domain, residues 1 to 1160, C-terminal FLAG tag) (human) (UniProt Q15155). Kind of assay: SEC-MALS; NOMO^LD-FLAG on a Superose 6 column, RT, 50 mM MES pH 6.0, 150 mM KCl, 5 mM MgCl2, 5 mM CaCl2, 2% glycerol, 0.005% DDM; protein conjugate analysis; both purified.

Regarding “NOMO^LD-FLAG (NOMO1 luminal domain, residues 1 to 1160, C-terminal FLAG tag) (from UniProt Q15155 32-1160) (domain or fragment)”, the binding entry was “no binding”.

Source of the values: publication PMC8327139, “Nodal modulator (NOMO) is required to sustain endoplasmic reticulum morphology” (The Journal of Biological Chemistry, 2021).
